Experimental data from publication PMC5222566, “The Ciliopathy-Associated Cep104 Protein Interacts with Tubulin and Nek1 Kinase” (Structure(London, England:1993), 2017).
No constants are given. Whether binding was seen depends on the method and setting. Binding calls can cover weak binding; strength is not graded here. Tags and fused reporters may be left off the sequences shown. For some assays here: In cells and extracts the contact can be indirect. Values belong to the substance of their own block, whether it stands above or below them.

Columns and labels:
[1] = target: T1, GST-Cep104^746-875 (ZNF) (human) (UniProt O60308); assay: pull-down; competition: GST-Cep104^746-875 beads, Hek293 lysate with 3xFLAG-Nek1 mixed with increasing amounts of recombinant CP110^906-936; anti-FLAG western blot; only the target purified
T1 sequence: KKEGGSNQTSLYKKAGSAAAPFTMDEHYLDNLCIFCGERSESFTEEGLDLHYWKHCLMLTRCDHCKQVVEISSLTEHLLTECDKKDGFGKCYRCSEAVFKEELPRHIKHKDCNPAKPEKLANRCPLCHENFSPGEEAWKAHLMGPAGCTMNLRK

[2] = target: T1, GST-Cep104^746-875 (ZNF) (human); assay: pull-down; 30 ug GST-Cep104^746-875 on Glutathione Sepharose 4B; cleared Hek293 lysates with 3xFLAG Nek1 constructs, 1 h 4°C; 50 mM Na-phosphate pH 7.5, 100 mM NaCl, 1 mM DTT, 0.1% NP-40; anti-FLAG western blot; only the target purified
[3] = target: T2, Cep104 (yeast two-hybrid fusion) (human) (UniProt O60308); assay: two-hybrid; yeast MaV203, pDEST32 bait and pDEST22 prey; growth on SC -Ura, 3 days 30°C
T2 sequence: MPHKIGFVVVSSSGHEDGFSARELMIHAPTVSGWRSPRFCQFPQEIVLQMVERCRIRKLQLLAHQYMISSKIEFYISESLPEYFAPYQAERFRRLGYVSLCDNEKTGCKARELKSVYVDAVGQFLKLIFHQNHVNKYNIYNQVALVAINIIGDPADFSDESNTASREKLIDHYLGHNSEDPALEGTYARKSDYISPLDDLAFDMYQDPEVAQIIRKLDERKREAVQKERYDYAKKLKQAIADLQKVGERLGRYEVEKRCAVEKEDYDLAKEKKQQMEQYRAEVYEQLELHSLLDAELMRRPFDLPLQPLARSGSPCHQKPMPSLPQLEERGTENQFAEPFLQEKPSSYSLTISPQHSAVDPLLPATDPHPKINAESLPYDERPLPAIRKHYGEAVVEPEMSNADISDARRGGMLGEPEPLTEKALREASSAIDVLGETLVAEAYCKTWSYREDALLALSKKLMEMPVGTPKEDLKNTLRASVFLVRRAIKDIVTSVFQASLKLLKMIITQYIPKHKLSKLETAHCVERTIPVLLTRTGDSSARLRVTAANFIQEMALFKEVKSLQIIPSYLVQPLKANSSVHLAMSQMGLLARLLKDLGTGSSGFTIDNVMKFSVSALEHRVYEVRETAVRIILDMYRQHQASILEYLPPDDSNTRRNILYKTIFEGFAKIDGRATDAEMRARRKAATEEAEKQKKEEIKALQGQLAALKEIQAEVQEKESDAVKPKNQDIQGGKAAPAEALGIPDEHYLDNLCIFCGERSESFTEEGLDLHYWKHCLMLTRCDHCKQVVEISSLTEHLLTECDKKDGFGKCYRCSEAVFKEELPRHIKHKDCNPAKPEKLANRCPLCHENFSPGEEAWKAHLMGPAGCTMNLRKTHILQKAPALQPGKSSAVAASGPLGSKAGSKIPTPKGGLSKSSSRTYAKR

[4] = target: T1, GST-Cep104^746-875 (ZNF) (human); assay: pull-down; in vitro: 30 ug GST-Cep104^746-875 on Glutathione Sepharose 4B; Nek1^451-677 (26 uM), CP110^906-936 (66 uM), D. rerio STIL^404-448 (127 uM) or binary combinations, 1 h 4°C; PBS, 0.1% IGEPAL CA-630, 1 mM DTT; Coomassie gel; both purified

- binding [1]: binds
- binding [2]: binds
Substance: 3xFLAG-tagged human Nek1 (enzyme)

- binding [2]: binds
Substance: 3xFLAG-tagged human Nek1 coiled-coil domain construct (domain or fragment)

- binding [3]: binds
Substance: Nek1 (yeast two-hybrid fusion) (human) (enzyme)

- binding [4]: binds
Substance: human Nek1^451-677 (domain or fragment)
